Data reported in PubChem BioAssay AID504467 (National Center for Advancing Translational Sciences (NCATS), 2011).
About 7,700 (2.3%) of roughly 330,000 compounds were called active. This list was built around the results that the source calls inconclusive (neither active nor inactive); the mix of calls is not that of the screen. The call rests on the fitted dose curve; in most records, active means well fitted inhibition curve with a large enough effect; inconclusive means small, poorly fitted or top-dose-only effect, or effect the other way; inactive means flat fitted curve, though single readings scatter. Where the call is inconclusive, the potency comes from a doubtful curve fit.

Test: qHTS screen for small molecules that inhibit ELG1-dependent DNA repair in human embryonic kidney (HEK293T) cells expressing luciferase-tagged ELG1; further: nearly all actives have a fitted effect of over 55% in size
Conditions: HEK293T ELG1-luciferase reporter, luminescence, 16 h, DNA damage induced by 5-fluorouridine; activity change, negative = inhibition: at 46.1 µM (top of the series)
Summary of the method: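 Luminescence from the luciferase reporter, measured 30 min after ONE-Glo reagent at room temperature, was the read-out. Beforehand, 2,000 cells per well were exposed for 16 hr at 37 °C to 5-fluorouridine together with compound or vehicle.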
On the % scale 0 is the no-effect control and ±100 the full control effect; potency means the concentration at half of the fitted maximal effect.

Q: With `O=C(CCCn1c(SCC(=O)c2ccc(O)c(O)c2)nc2ccccc2c1=O)NCC1CCCO1` (stereo unspecified) as the molecule, how does the Potency read?
A: Its Potency is inconclusive: 20.6 µM [inhibitor, single point].

Q: Which “activity change, negative = inhibition” value does the source give for `CCCOc1cccc(C(=O)Nc2cccnc2)c1` here?
A: Its value is inactive: 9.29%.

Q: For `CC1=CC(C2CC(=O)N(c3ccc(C)cc3)C2=O)CC2C(=O)N(c3ccc(C)cc3)C(=O)C12` (stereo unspecified), which Potency is on record?
A: Its Potency is inconclusive: 29.1 µM [inhibitor, single point].

Q: With `COCC(C)n1c(SCc2nc3ccccc3c(=O)[nH]2)nc2ccccc2c1=O` (stereo unspecified) as the molecule, how does the Potency read?
A: The Potency was inconclusive: 6.51 µM [inhibitor, single point].

Q: With `Cc1ccc(Cn2c(=N)c(C(=O)NCCN3CCOCC3)cc3c(=O)n4ccccc4nc32)cc1` as the molecule, how does the “activity change, negative = inhibition” value read?
A: The value was inactive: 24.1%.

Q: For `Cc1cccc(OCC(=O)NNC(=O)CSc2ncc(C#N)c(N)n2)c1`, which “activity change, negative = inhibition” value is on record?
A: Its value is inactive: 2.55%.

Q: Which “activity change, negative = inhibition” value does the source give for `Cc1ccc(S(=O)(=O)N(CC(=O)NCCSCc2ccco2)c2ccc(F)cc2)cc1` here?
A: Its value is inactive: 1.62%.

Q: For `O=C(N=C1c2ccccc2CN1c1ccc(F)c(F)c1)c1cccnc1`, which Potency is on record?
A: The Potency was inconclusive: 18.3 µM [activator, single point].

Q: Which “activity change, negative = inhibition” value does the source give for `Cc1ccc(OCCN(C)C(=O)C2CCC(=O)N(CCCN3CCOCC3)C2)cc1` (stereo unspecified) here?
A: Its value is inactive: 12.8%.

Q: For `COc1ccc(CCn2c(Br)nc3c2c(=O)[nH]c(=O)n3C)cc1`, which “activity change, negative = inhibition” value is on record?
A: The value was inactive: -29.2%.

Q: Which Potency does the source give for `Cc1onc(-c2ccccc2)c1C(=O)NCC1CCN(C(=O)c2c(-c3ccccc3)noc2C)CC1` here?
A: The Potency was inconclusive: 29.1 µM [inhibitor, single point].

Q: With `Cc1ccc(OCC(=O)Nc2ccc(S(=O)(=O)Nc3onc(C)c3C)cc2)cc1` as the molecule, how does the “activity change, negative = inhibition” value read?
A: Its value is inactive: 7.05%.

Q: Which “activity change, negative = inhibition” value does the source give for `CCC(C)Sc1ccc([C@@H]2[C@@H]3C(=O)N(C)C(=O)[C@@H]3[C@]3(C(=O)OC)CCCCN23)cc1OC` (stereo partly specified) here?
A: The value was inactive: -3.42%.

Q: For `O=C(O)c1ccc2c(c1)C(=O)N(CCc1ccccc1)C2=O`, which “activity change, negative = inhibition” value is on record?
A: Its value is inactive: 0%.

Q: Which Potency does the source give for `Cc1cccc(NC(=O)CSc2nnc(-c3n[nH]c4ccccc34)o2)c1` here?
A: The Potency was inconclusive: 25.9 µM [activator, partial curve, poor fit].

Q: For `COc1ccc(S(=O)(=O)N2CCCCC2)cc1NC(=O)CNc1ccccc1C(C)=O`, which Potency is on record?
A: The Potency was inconclusive: 29.1 µM [inhibitor, single point].

Q: For `Cc1ccc(-c2n[nH]c(=S)n2Cc2ccccc2)cc1`, which “activity change, negative = inhibition” value is on record?
A: Its value is inactive: 3.78%.

Q: With `Cc1cccc(NC(=O)C2CCN(S(=O)(=O)c3cccc4nsnc34)CC2)c1` as the molecule, how does the Potency read?
A: The Potency was inconclusive: 7.3 µM [inhibitor, partial curve].

Q: With `CN(N)C(=S)Nc1ccc(Cl)cc1` as the molecule, how does the “activity change, negative = inhibition” value read?
A: Its value is inactive: 0.505%.

Q: Which “activity change, negative = inhibition” value does the source give for `CCc1ccc(N2CC(C(=O)N/N=C/c3cccc([N+](=O)[O-])c3)CC2=O)cc1` (stereo unspecified) here?
A: Its value is inactive: 0.724%.

Q: For `COc1ccc(/C=C2\SC(=S)N(CCCC(=O)N3CCCCC3CCO)C2=O)cc1` (stereo unspecified), which Potency is on record?
A: The Potency was inconclusive: 20.6 µM [inhibitor, partial curve, poor fit].

Q: For `COc1cccc(N(C(=O)Cn2nnc3ccccc32)C(C(=O)NCc2ccco2)c2cccnc2)c1` (stereo unspecified), which Potency is on record?
A: Its Potency is inconclusive: 29.1 µM [inhibitor, single point].

Q: For `CC1CCCC(C)N1C(=O)COC(=O)c1cc([N+](=O)[O-])ccc1N1CCOCC1` (stereo unspecified), which Potency is on record?
A: Its Potency is inconclusive: 4.11 µM [activator, single point].

Q: Which Potency does the source give for `CCOc1ccccc1OCC(=O)Nc1ccc(S(=O)(=O)Nc2ncccn2)cc1` here?
A: Its Potency is inconclusive: 29.1 µM [activator, single point].

Q: With `C=C1C(C(=O)Nc2cccc(OC)c2)C1C(=O)Nc1cccc(OC)c1` (stereo unspecified) as the molecule, how does the “activity change, negative = inhibition” value read?
A: Its value is inactive: -0.461%.

Q: With `C=CCOn1c(=O)c(-c2cc3ccccc3o2)[n+]([O-])c2ccccc21` as the molecule, how does the Potency read?
A: The Potency was inconclusive: 11.6 µM [activator, partial curve].

Q: Which “activity change, negative = inhibition” value does the source give for `Cc1ccccc1NC1=NC(=S)N(c2ccccc2)C12CCCCC2` here?
A: Its value is inactive: -25.4%.

Q: For `Cn1c(CNC(=O)c2ccc(Cl)cc2)nnc1SCC(=O)N1CCOCC1`, which “activity change, negative = inhibition” value is on record?
A: The value was inactive: 26.1%.

Q: With `Cc1c(C(=O)NN)sc(-c2ccccc2)c1C#N` as the molecule, how does the Potency read?
A: Its Potency is inconclusive: 29.1 µM [inhibitor, single point].

Q: With `CCOc1ccc(NC(C)=O)cc1N` as the molecule, how does the Potency read?
A: Its Potency is inconclusive: 13 µM [activator, single point].

Q: For `CCN(CC)S(=O)(=O)c1cc(NC(=O)CN2C(=O)NC3(CCCc4ccccc43)C2=O)ccc1C` (stereo unspecified), which Potency is on record?
A: Its Potency is inconclusive: 16.4 µM [inhibitor, partial curve, poor fit].

Q: For `O=C(CSc1nc2cc(Cl)ccc2s1)NC1CCCc2ccccc21` (stereo unspecified), which “activity change, negative = inhibition” value is on record?
A: Its value is inactive: 6.77%.

Q: For `Cc1ccc(NCc2ccccc2O)cc1C`, which Potency is on record?
A: The Potency was inconclusive: 20.6 µM [activator, single point].

Q: Which “activity change, negative = inhibition” value does the source give for `O=C(O)c1cccc2c1C(=O)c1ccc(N3CCCCC3)cc1S2(=O)=O` here?
A: The value was inactive: 27%.

Q: For `CC(C)(C)NC(=O)CC1C[C@H](C(=O)N2CCCCC2)[C@@]2(CCc3ccccc3)c3[nH]c4ccccc4c3CCN2C1=O` (stereo partly specified), which “activity change, negative = inhibition” value is on record?
A: The value was inactive: 13%.

Q: With `O=C(CSc1nc2ccccc2[nH]1)c1ccc(Cl)s1` as the molecule, how does the Potency read?
A: Its Potency is inconclusive: 11.6 µM [activator, partial curve].

Q: For `C=CCC[C@@H](Cc1ccc(F)cc1)C(=O)OC[C@@H]1CCCN1C(=O)[C@H](CC=C)CC(=O)N[C@H](CO)Cc1ccccc1`, which Potency is on record?
A: Its Potency is inconclusive: 29.1 µM [inhibitor, single point].

Q: For `O=c1oc2ccccc2cc1-c1nc2c(s1)CCCC2`, which Potency is on record?
A: The Potency was inconclusive: 0.184 µM [activator, partial curve].

Q: For `CCS(=O)(=O)N1Cc2ccccc2CC1C(=O)Nc1nc(C)cs1` (stereo unspecified), which Potency is on record?
A: Its Potency is inconclusive: 20.6 µM [activator, partial curve].

Q: For `O=C(O)c1ccc(NCc2ccc3c(c2)OCO3)cc1`, which “activity change, negative = inhibition” value is on record?
A: Its value is inactive: 15%.

Q: Which “activity change, negative = inhibition” value does the source give for `COC(=O)c1ccc(-c2noc(CN(Cc3nccn3C)C(C)C)n2)cc1` here?
A: Its value is inactive: -3.97%.

Q: For `CN(CC(=O)NCC1CCCCC1)CC(=O)Nc1ccc(F)cc1`, which “activity change, negative = inhibition” value is on record?
A: Its value is inactive: 3.06%.

Q: Which Potency does the source give for `O=C(Nc1ccc(NC(=O)C2CCCN2C(=O)OCc2ccccc2)cc1)c1ccco1` (stereo unspecified) here?
A: The Potency was inconclusive: 32.6 µM [inhibitor, partial curve, poor fit].

Q: With `COc1ccccc1C1C(C(N)=O)=C(C)Nc2nc(-c3ccccc3Cl)nn21` (stereo unspecified) as the molecule, how does the Potency read?
A: The Potency was inconclusive: 29.1 µM [activator, single point].

Q: Which Potency does the source give for `Cc1c(NC(=O)c2cccc(NS(C)(=O)=O)c2)c(=O)n(-c2ccccc2)n1C` here?
A: The Potency was inconclusive: 32.6 µM [inhibitor, partial curve, poor fit].

Q: For `Cc1ccc(CNC(=O)Cc2noc3ccccc23)cc1`, which Potency is on record?
A: Its Potency is inconclusive: 7.3 µM [activator, partial curve].
